In patent US20260085103A1 (CHENGDU AODA BIOTECHNOLOGY CO., LTD, priority 2022, published 2026):

Assay: general procedure: Fmoc solid-phase peptide synthesis; Rink amide MBHA resin (substitution about 0.3 mmol/g)
Details: whole synthesis, acetate; for final HPLC purity: analytical liquid phase (HPLC); for final HPLC purity / isolated yield: scale of the general procedure 0.01 mmol; for isolated yield: total yield

Row | Substance | isolated mass [g] | final HPLC purity [%] | isolated yield [%]
1 | Phe-Val-Asn-Gln-His-Leu-Cys-Gly-Ser-His-Leu-Val-Glu-Ala-Leu-Glu-Leu-Val-Cys-Gly-Glu-Arg-Gly-Phe-His-Tyr-Thr-Pro-Lys(PEG5CH2CO-γGlu-eicosandioic acid)-NH2 | 3.9 | 97.7 | 6.1
2 | Phe-Val-Asn-Gln-His-Leu-Cys-Gly-Ser-His-Leu-Val-Glu-Ala-Leu-Glu-Leu-Val-Cys-Gly-Glu-Arg-Gly-Phe-His-Tyr-Thr-Pro-Lys-Thr-Lys(PEG5CH2CO-γGlu-eicosandioic acid)-NH2 | – | 98.5 | 7.1
3 | Phe-Val-Asn-Gln-His-Leu-Cys-Gly-Ser-His-Leu-Val-Glu-Ala-Leu-Glu-Leu-Val-Dap-Gly-Glu-Arg-Gly-Phe-His-Tyr-Thr-Pro-Lys(PEG5CH2CO-γGlu-eicosandioic acid)-NH2 | 3.5 | 98.8 | 5.5
